Results from article doi:10.1101/2022.11.01.514783.
These are yes or no findings as the source states them, for the method shown. In cells and extracts the contact can be indirect. These calls come from enrichment with a bait or labelling near it, and not all partners need be listed. Blank lines part the entries; values can stand above or below the binder they belong to.

Target: T1, MORC7 (Arabidopsis) (UniProt F4JRS4)
T1 sequence: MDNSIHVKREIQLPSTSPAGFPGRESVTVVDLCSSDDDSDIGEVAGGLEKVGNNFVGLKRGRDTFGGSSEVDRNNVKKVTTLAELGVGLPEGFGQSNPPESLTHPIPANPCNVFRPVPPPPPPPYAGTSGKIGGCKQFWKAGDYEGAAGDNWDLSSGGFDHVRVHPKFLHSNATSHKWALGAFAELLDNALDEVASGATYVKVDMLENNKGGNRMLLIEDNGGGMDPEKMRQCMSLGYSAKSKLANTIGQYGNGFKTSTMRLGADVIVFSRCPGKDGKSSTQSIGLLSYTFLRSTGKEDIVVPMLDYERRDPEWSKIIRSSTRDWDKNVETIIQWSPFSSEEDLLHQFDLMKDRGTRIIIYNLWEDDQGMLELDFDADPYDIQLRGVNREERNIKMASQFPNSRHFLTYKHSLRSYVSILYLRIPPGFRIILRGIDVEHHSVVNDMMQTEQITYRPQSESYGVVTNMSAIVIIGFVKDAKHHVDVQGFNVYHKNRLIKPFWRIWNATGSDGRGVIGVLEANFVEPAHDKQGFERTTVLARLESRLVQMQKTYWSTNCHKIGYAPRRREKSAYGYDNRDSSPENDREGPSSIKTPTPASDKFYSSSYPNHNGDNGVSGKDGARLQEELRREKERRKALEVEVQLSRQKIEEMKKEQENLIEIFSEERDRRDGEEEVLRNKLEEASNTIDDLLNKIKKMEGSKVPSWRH
Experiment: affinity purification with mass spectrometry

binding: binds
B1: TOPLESS (TPL) (protein, UniProt Q94AI7 1-1131)
chain: MSSLSRELVFLILQFLDEEKFKETVHKLEQESGFFFNMKYFEDEVHNGNWDEVEKYLSGFTKVDDNRYSMKIFFEIRKQKYLEALDKHDRPKAVDILVKDLKVFSTFNEELFKEITQLLTLENFRENEQLSKYGDTKSARAIMLVELKKLIEANPLFRDKLQFPTLRNSRLRTLINQSLNWQHQLCKNPRPNPDIKTLFVDHSCGPPNGARAPSPVNNPLLGGIPKAGGFPPLGAHGPFQPTASPVPTPLAGWMSSPSSVPHPAVSAGAIALGGPSIPAALKHPRTPPTNASLDYPSADSEHVSKRTRPMGISDEVNLGVNMLPMSFSGQAHGHSPAFKAPDDLPKTVARTLSQGSSPMSMDFHPIKQTLLLVGTNVGDIGLWEVGSRERLVQKTFKVWDLSKCSMPLQAALVKEPVVSVNRVIWSPDGSLFGVAYSRHIVQLYSYHGGEDMRQHLEIDAHVGGVNDISFSTPNKQLCVITCGDDKTIKVWDAATGVKRHTFEGHEAPVYSVCPHYKENIQFIFSTALDGKIKAWLYDNMGSRVDYDAPGRWCTTMAYSADGTRLFSCGTSKDGESFIVEWNESEGAVKRTYQGFHKRSLGVVQFDTTKNRYLAAGDDFSIKFWDMDAVQLLTAIDGDGGLQASPRIRFNKEGSLLAVSGNENVIKIMANSDGLRLLHTFENISSESSKPAINSIAAAAAAAATSAGHADRSANVVSIQGMNGDSRNMVDVKPVITEESNDKSKIWKLTEVSEPSQCRSLRLPENLRVAKISRLIFTNSGNAILALASNAIHLLWKWQRNERNATGKATASLPPQQWQPASGILMTNDVAETNPEEAVPCFALSKNDSYVMSASGGKISLFNMMTFKTMATFMPPPPAATFLAFHPQDNNIIAIGMDDSTIQIYNVRVDEVKSKLKGHSKRITGLAFSNVLNVLVSSGADAQLCVWNTDGWEKQRSKVLPLPQGRPNSAPSDTRVQFHQDQAHFLVVHETQLAIYETTKLECMKQWAVRESLAPITHATFSCDSQLVYASFMDATVCVFSSANLRLRCRVNPSAYLPASLSNSNVHPLVIAAHPQEPNMFAVGLSDGGVHIFEPLESEGKWGVAPPAENGSASGAPTAPSVGASASDQPQR

binding: binds
B2: LEUNIG (LUG) (protein, UniProt Q9FUY2 1-931)
chain: MSQTNWEADKMLDVYIHDYLVKRDLKATAQAFQAEGKVSSDPVAIDAPGGFLFEWWSVFWDIFIARTNEKHSEVAASYIETQMIKAREQQLQQSQHPQVSQQQQQQQQQQIQMQQLLLQRAQQQQQQQQQQHHHHQQQQQQQQQQQQQQQQQQQQHQNQPPSQQQQQQSTPQHQQQPTPQQQPQRRDGSHLANGSANGLVGNNSEPVMRQNPGSGSSLASKAYEERVKMPTQRESLDEAAMKRFGDNVGQLLDPSHASILKSAAASGQPAGQVLHSTSGGMSPQVQTRNQQLPGSAVDIKSEINPVLTPRTAVPEGSLIGIPGSNQGSNNLTLKGWPLTGFDQLRSGLLQQQKPFMQSQSFHQLNMLTPQHQQQLMLAQQNLNSQSVSEENRRLKMLLNNRSMTLGKDGLGSSVGDVLPNVGSSLQPGGSLLPRGDTDMLLKLKMALLQQQQQNQQQGGGNPPQPQPQPQPLNQLALTNPQPQSSNHSIHQQEKLGGGGSITMDGSISNSFRGNEQVLKNQSGRKRKQPVSSSGPANSSGTANTAGPSPSSAPSTPSTHTPGDVISMPNLPHSGGSSKSMMMFGTEGTGTLTSPSNQLADMDRFVEDGSLDDNVESFLSQEDGDQRDAVTRCMDVSKGFTFTEVNSVRASTTKVTCCHFSSDGKMLASAGHDKKAVLWYTDTMKPKTTLEEHTAMITDIRFSPSQLRLATSSFDKTVRVWDADNKGYSLRTFMGHSSMVTSLDFHPIKDDLICSCDNDNEIRYWSINNGSCTRVYKGGSTQIRFQPRVGKYLAASSANLVNVLDVETQAIRHSLQGHANPINSVCWDPSGDFLASVSEDMVKVWTLGTGSEGECVHELSCNGNKFQSCVFHPAYPSLLVIGCYQSLELWNMSENKTMTLPAHEGLITSLAVSTATGLVASASHDKLVKLWK
